Mtb glucose medium: 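Phenotypic screen: M. tuberculosis growth, glucose 7H9 medium, 3 days; the read-out is not stated. Tested at 500 µM. Higher reads as more growth inhibition (inferred: compounds with an IC50 in retests scored well above the rest). Of about 18,000 compounds tested this way, about 1,400 (7.9%) reached 50% or more in at least one test.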
Mtb cholesterol medium: 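Growth of Mycobacterium tuberculosis over 4 days (cholesterol / DPPC medium with tyloxapol); the read-out is not stated. Compounds at 500 µM. The record gives no direction; compounds that gave an IC50 in retests scored well above the rest, so higher reads as more growth inhibition. Size under these conditions: about 18,000 compounds, about 900 of them at 50% or above in at least one test.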

The filed quantity is “Percent Effect” (%).
The controls that fix the scale are not given in the record; negative values are as filed.
The compounds are a random part of those screened.

Result for COc1ccc2c(c1)CCC(N)C2 (centres undefined) was Mtb glucose medium: 21.8%; Mtb cholesterol medium: 3.394%.
Result for CCC1CCCCN1C(=O)CN1CCCC[C@@H]1CO (some centres undefined) was Mtb glucose medium: -0.3633%; Mtb cholesterol medium: -4.782%.
Result for CC1(C)CN(c2ccc3nnnn3n2)C1(C)C was Mtb glucose medium: 1.706%; Mtb cholesterol medium: 4.802%.
Result for O=C(CCC1CCCCC1)N1CCNCC1 was Mtb glucose medium: 45.12%; Mtb cholesterol medium: 40.8%.
Result for CN(C)Cc1ccc(C(=O)NCCN(C)S(C)(=O)=O)o1 was Mtb glucose medium: 2.308%; Mtb cholesterol medium: 6.766%.
Result for CCNc1ncc(C(=O)NCCSCC2CC2)s1 was Mtb glucose medium: 1.604%; Mtb cholesterol medium: -4.952%.
Result for COc1c(CNCc2ccnn2C)c(C)nn1C was Mtb glucose medium: -7.026%; Mtb cholesterol medium: -5.95%.
Result for CN(CC(=O)N[C@@H]1COCC[C@H]1O)Cc1ccccn1 was Mtb glucose medium: 11.11%; Mtb cholesterol medium: 15.53%.
Result for O=C(NCCCOC(F)F)NCc1cccnc1 was Mtb glucose medium: -1.799%; Mtb cholesterol medium: -15.47%.
Result for CN(CCOc1ccc(F)cc1)CC(=O)N(C)C was Mtb glucose medium: 20.26%; Mtb cholesterol medium: 15.23%.
Result for N#CCCN(Cc1ccco1)C(=O)c1cc(Cl)c[nH]1 was Mtb glucose medium: 40.61%; Mtb cholesterol medium: 43.01%.
Result for CCC1CN(C(=O)c2ccc(S(C)(=O)=O)cc2)CCO1 (centres undefined) was Mtb glucose medium: 45.28%; Mtb cholesterol medium: 2.687%.
Result for CSc1ncc(C(=O)NCc2nnc3n2CCC3)cn1 was Mtb glucose medium: 8.658%; Mtb cholesterol medium: -11.96%.
Result for CNC(=O)c1ccc(CNC(=O)C2CCOC2)o1 (centres undefined) was Mtb glucose medium: 2.564%; Mtb cholesterol medium: -8.158%.
Result for COC(=O)CCN(Cc1nccn1C)CC1CCCO1 (centres undefined) was Mtb glucose medium: 27.78%; Mtb cholesterol medium: 12.16%.
Result for CC(=O)NCCNC(=O)COc1c(C)cccc1C was Mtb glucose medium: 7.865%; Mtb cholesterol medium: -3.445%.
Result for CC(NC(=O)NCc1ccnn1C)c1ccccc1F (centres undefined) was Mtb glucose medium: 7.131%; Mtb cholesterol medium: -10.52%.
Result for CC(C)(C)OC(=O)NCc1cccc(OCC(N)=O)c1 was Mtb glucose medium: 46.11%; Mtb cholesterol medium: 41.47%.
Result for CCOCCCNC(=O)NCc1c(C)nn(CC)c1C was Mtb glucose medium: -7.344%; Mtb cholesterol medium: -8.56%.
Result for COC1CCN(C(=O)Cc2noc3ccccc23)CC1 was Mtb glucose medium: 28.95%; Mtb cholesterol medium: 22.92%.
Result for O=C(NCc1ccccn1)C1(c2ccc(F)cc2)CC1 was Mtb glucose medium: 46.22%; Mtb cholesterol medium: 25.66%.
Result for CCOCCC(=O)N1CCN(CC(O)C(C)(C)C)CC1 (centres undefined) was Mtb glucose medium: 29.66%; Mtb cholesterol medium: 37.65%.
Result for CCOC(=O)c1cc(NC(C)=O)[nH]n1 was Mtb glucose medium: -16.63%; Mtb cholesterol medium: -13.57%.
Result for CC(CN)N1CCN(C)CC1 (centres undefined) was Mtb glucose medium: 14.18%; Mtb cholesterol medium: 8.65%.
Result for Cc1ccc(CCC(=O)N(C)C)cc1 was Mtb glucose medium: 41.38%; Mtb cholesterol medium: -1.565%.
Result for COc1ccc(NC(=O)NCCN2CCOCC2)cn1 was Mtb glucose medium: 5.796%; Mtb cholesterol medium: 5.865%.
Result for CCc1nn2c(=O)cc(CN3CCCC3)nc2s1 was Mtb glucose medium: -5.634%; Mtb cholesterol medium: -22.27%.
Result for CC(C)c1nc(CN2C(=O)COc3cccnc32)no1 was Mtb glucose medium: 36.44%; Mtb cholesterol medium: 13.06%.
Result for CC(=O)NC1CCN(C(=O)CSC(C)(C)C)CC1 was Mtb glucose medium: 12.63%; Mtb cholesterol medium: 6.75%.
Result for CC(C)Sc1nnc(-c2cccnc2)o1 was Mtb glucose medium: 67.65%; Mtb cholesterol medium: 69.45%.
Result for O=C(CN1CCCCCCC1)NCc1ncc[nH]1 was Mtb glucose medium: 14.42%; Mtb cholesterol medium: 5.229%.
Result for CC(=O)c1cc(CN(C)CC2CC(=O)N(C)C2)n(C)c1 (centres undefined) was Mtb glucose medium: -6.585%; Mtb cholesterol medium: -8.175%.
Result for CNC(=O)C(C)NS(=O)(=O)c1ccc2ccccc2c1 (centres undefined) was Mtb glucose medium: 37.02%; Mtb cholesterol medium: 26.92%.
Result for COC(C(=O)NCCn1cncn1)c1ccccc1 (centres undefined) was Mtb glucose medium: 3.669%; Mtb cholesterol medium: 3.954%.
Result for CCc1c[nH]c(S(=O)(=O)Cc2noc(C(C)C)n2)n1 was Mtb glucose medium: -6.886%; Mtb cholesterol medium: -10.3%.
Result for COc1cccc(NC(=O)NCC2CCN(C)CC2)c1 was Mtb glucose medium: 20.34%; Mtb cholesterol medium: -5.679%.
Result for Cc1noc(C)c1CC(=O)N1CCN(C(C)(C)C)CC1 was Mtb glucose medium: -13.13%; Mtb cholesterol medium: -20.23%.
Result for Cc1cccc2c1N(C(=O)c1ccccn1)CCC2 was Mtb glucose medium: -10.91%; Mtb cholesterol medium: -11.38%.
Result for NC(=O)C1COCCN1c1nc(C2CC2)ns1 (centres undefined) was Mtb glucose medium: 9.329%; Mtb cholesterol medium: 6.942%.
Result for O=S(=O)(NC1CC1)c1cccs1 was Mtb glucose medium: 25.05%; Mtb cholesterol medium: 5.688%.
Result for N#CCCN1CCCN(Cc2ccc(C#N)cc2)CC1 was Mtb glucose medium: 15.86%; Mtb cholesterol medium: 21.63%.
Result for CCN(CCNC(=O)c1cc(C#N)c[nH]1)C1CC1 was Mtb glucose medium: 21.06%; Mtb cholesterol medium: 13.66%.
Result for CC1CN(Cc2csnn2)C(C)(C)CO1 (centres undefined) was Mtb glucose medium: 15.88%; Mtb cholesterol medium: 6.188%.
Result for CCSCC(C)N(C)C(=O)c1cccc2nn[nH]c12 (centres undefined) was Mtb glucose medium: 9.617%; Mtb cholesterol medium: -9.044%.
Result for Cn1ccc(Cn2cc(C(F)(F)F)ccc2=O)cc1=O was Mtb glucose medium: 10.19%; Mtb cholesterol medium: 2.858%.
Result for COCCN1CCC(CC(=O)N2CCN(C)CC2)CC1 was Mtb glucose medium: -18.98%; Mtb cholesterol medium: -8.369%.
Result for CC(C)=CCC1(CO)CCCN(CCC(N)=O)C1 (centres undefined) was Mtb glucose medium: 30.18%; Mtb cholesterol medium: 16.24%.
Result for Cn1ccnc1CN(CCO)CCN1C[C@H]2CC[C@@H]1C2 was Mtb glucose medium: 9.748%; Mtb cholesterol medium: -1.207%.

For reference, 3 entries once more:

Compound,Mtb glucose medium,Mtb cholesterol medium
Cc1cccc2c1N(C(=O)c1ccccn1)CCC2,-10.91,-11.38
COc1c(CNCc2ccnn2C)c(C)nn1C,-7.026,-5.95
COC(=O)CCN(Cc1nccn1C)CC1CCCO1 (centres undefined),27.78,12.16

Measurements from “University of Dundee, Small-Polar-MMV Screening Library” (2021), ChEMBL document CHEMBL3988442.